Results published in patent publication US9133155B2, “Antibacterial agents: high-potency myxopyronin derivatives” (Rutgers, The State University of New Jersey, priority 2010, dated 2015).
Some results were stated once for a whole list of compounds, not compound by compound.

Chains of the proteins cited; added tags and fusions are not shown.
UniProt P0A8T7, whole entry: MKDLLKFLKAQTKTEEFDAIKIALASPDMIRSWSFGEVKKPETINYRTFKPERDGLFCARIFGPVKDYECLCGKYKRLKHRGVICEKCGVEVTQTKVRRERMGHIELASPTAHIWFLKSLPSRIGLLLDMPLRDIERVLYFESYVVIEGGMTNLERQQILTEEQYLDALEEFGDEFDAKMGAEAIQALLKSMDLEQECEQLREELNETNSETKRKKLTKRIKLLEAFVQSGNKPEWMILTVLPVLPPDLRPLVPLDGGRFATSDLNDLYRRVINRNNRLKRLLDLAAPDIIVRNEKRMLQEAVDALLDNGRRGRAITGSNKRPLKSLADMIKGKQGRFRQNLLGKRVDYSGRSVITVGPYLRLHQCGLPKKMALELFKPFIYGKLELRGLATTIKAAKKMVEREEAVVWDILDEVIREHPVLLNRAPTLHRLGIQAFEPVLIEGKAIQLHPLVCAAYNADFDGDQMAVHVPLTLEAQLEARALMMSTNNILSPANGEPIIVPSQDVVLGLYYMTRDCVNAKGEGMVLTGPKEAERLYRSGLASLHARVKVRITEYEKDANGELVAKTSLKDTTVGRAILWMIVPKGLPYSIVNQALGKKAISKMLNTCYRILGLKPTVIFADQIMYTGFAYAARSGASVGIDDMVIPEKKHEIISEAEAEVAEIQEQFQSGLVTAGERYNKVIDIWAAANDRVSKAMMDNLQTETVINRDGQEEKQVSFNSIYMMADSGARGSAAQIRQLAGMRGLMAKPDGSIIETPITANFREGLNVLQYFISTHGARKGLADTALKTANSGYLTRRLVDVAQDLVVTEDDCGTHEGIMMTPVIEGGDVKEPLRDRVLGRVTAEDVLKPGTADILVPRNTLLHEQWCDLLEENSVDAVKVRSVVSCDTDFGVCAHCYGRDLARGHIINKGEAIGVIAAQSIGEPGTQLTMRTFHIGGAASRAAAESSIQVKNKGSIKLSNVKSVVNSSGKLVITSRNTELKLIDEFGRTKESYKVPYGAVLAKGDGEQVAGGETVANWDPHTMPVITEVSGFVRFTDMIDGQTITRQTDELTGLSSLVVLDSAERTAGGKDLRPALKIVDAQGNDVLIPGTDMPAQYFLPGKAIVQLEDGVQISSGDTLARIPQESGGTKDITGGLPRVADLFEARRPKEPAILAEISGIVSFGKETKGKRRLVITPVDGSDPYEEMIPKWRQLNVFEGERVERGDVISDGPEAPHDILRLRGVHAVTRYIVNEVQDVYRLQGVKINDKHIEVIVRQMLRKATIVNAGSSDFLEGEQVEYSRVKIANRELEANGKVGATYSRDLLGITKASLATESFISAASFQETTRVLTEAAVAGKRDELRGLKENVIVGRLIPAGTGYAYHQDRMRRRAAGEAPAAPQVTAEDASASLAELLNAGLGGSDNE
UniProt P0A8V2, whole entry: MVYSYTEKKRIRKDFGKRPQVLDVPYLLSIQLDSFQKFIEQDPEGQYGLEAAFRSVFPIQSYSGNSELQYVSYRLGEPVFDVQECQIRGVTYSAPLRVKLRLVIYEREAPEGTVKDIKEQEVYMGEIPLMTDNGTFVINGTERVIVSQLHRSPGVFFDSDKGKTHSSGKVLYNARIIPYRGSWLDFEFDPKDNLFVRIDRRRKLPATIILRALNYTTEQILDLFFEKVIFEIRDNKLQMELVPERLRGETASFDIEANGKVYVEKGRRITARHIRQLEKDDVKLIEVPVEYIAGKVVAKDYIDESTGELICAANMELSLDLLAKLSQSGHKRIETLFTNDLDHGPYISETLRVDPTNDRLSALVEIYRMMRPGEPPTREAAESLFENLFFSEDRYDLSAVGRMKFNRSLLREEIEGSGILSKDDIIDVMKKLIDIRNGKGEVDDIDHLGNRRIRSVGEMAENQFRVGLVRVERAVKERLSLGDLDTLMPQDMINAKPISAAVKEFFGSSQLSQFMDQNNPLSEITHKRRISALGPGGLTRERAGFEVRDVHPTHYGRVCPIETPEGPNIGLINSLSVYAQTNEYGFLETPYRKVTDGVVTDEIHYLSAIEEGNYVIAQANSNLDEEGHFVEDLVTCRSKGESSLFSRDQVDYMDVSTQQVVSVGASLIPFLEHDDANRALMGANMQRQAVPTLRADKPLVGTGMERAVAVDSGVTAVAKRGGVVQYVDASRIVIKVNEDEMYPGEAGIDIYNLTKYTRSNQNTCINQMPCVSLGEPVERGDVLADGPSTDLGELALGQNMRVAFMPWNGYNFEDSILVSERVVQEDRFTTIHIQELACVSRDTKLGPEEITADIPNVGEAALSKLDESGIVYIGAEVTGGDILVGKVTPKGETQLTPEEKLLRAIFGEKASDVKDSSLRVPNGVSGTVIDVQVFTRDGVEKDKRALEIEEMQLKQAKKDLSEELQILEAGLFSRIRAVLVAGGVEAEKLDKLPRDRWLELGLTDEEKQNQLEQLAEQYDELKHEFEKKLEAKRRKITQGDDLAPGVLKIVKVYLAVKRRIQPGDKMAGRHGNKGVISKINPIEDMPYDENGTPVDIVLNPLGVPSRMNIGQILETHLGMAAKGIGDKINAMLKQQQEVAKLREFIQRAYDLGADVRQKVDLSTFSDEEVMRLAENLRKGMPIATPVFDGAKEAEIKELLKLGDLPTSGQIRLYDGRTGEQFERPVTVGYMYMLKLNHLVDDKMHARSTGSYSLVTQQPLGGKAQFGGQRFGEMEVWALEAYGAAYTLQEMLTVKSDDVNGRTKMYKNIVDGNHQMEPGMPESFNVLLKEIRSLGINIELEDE

Key:
[1] = tested on: Acinetobacter baumannii ATCC 19606; test: Inhibition of bacterial growth in culture (MIC, spiral gradient endpoint); assay type: cell-based; conditions: summary of Table 3
From the text: Minimum inhibitory concentrations (MICs) for Staphylococcus aureus ATCC 12600, Enterococcus faecalis ATCC 19433, Acinetobacter baumannii ATCC 19606, and Escherichia coli D21f2tolC were quantified using spiral gradient endpoint assays, essentially as described [Wallace, A. and Corkill, J. (1989) Application of the spiral plating method to study antimicrobial action. J. Microbiol. Meths. […] Int. J. Exp. Clin. Chemother. 3, 31-38; Schalkowsky S. (1994) Measures of susceptibility from a spiral gradient of drug concentrations. Adv. Exp. Med. Biol. 349, 107-120]. Assays employed exponential-gradient plates containing 150 mm×4 mm Mueller-Hinton II cation-adjusted agar and 0.4-100 μg/ml of test compound. Plates were prepared using an Autoplate 4000 spiral plater (Spiral Biotech, Inc.). Saturated overnight cultures were swabbed radially onto plates, and plates were incubated for 16 h at 37° C. For each culture, the streak length was measured using a clear plastic template (Spiral Biotech, Inc.), the test-compound concentration at the streak endpoint was calculated using the program SGE (Spiral Biotech, Inc.), and the MIC was defined as the calculated test-compound concentration at the streak endpoint.

[2] = biological target: E. coli RNA polymerase σ^70 holoenzyme (Escherichia coli, UniProt P0A8T7+P0A8V2); test: Inhibition of Escherichia coli RNA polymerase (fluorescence-detected); assay type: biochemical; conditions: for IC50: read-out: IC50 E. coli RNAP; for inhibition of a bacterial RNA polymerase compared with Myx B and 7-desmethyl-Myx B: summary of Table 3
Procedure: Fluorescence-detected RNA polymerase assays with E. coli RNA polymerase were performed by a modification of the procedure of Kuhlman et al., 2004 [Kuhlman, P., Duff, H. & Galant, A. (2004) A fluorescence-based assay for multisubunit DNA-dependent RNA polymerases. Anal. Biochem. 324, 183-190]. Reaction mixtures contained (20 μl): 0-100 nM test compound, 75 nM E. coli RNA polymerase σ^70 holoenzyme, 20 nM 384 bp DNA fragment containing the bacteriophage T4 N25 promoter, 100 μM ATP, 100 μM GTP, 100 μM UTP, 100 μM CTP, 50 mM Tris-HCl, pH 8.0, 100 mM KCl, 10 mM MgCl2, 1 mM DTT, 10 μg/ml bovine serum albumin, and 5.5% glycerol. Reaction components other than DNA and NTPs were pre-incubated for 10 min at 37° C. Reactions were carried out by addition of DNA and incubation for 5 min at 37° C., followed by addition of NTPs and incubation for 60 min at 37° C. DNA was removed by addition of 1 μl 5 mM CaCl2 and 2 U DNaseI (Ambion, Inc.), followed by incubation for 90 min at 37° C. RNA was quantified by addition of 100 μl RiboGreen RNA Quantitation Reagent (Invitrogen, Inc.; 1:500 dilution in Tris-HCl, pH 8.0, 1 mM EDTA), followed by incubation for 10 min at 25° C., followed by measurement of fluorescence intensity [excitation wavelength=485 nm and emission wavelength=535 nm; QuantaMaster QM1 spectrofluorometer (PTI, Inc.)].

[3] = Formulation for intravenous injection in dimethylacetamide/Cremophor EL vehicle; assay type: physicochemical; conditions: vehicles containing 9% to 19% dimethylacetamide and 8% to 16% Cremophor EL

Row | SMILES | inhibition of Acinetobacter baumannii (in words) [1] | IC50 [2] | inhibition of a bacterial RNA polymerase compared with Myx B and 7-desmethyl-Myx B [2] | concentration at which compound can be formulated for intravenous injection [3]
1 | CCCCCC/C(C)=C/C=C(\C)C(=O)c1c(O)cc(C(C)CC/C=C/NC(=O)OC)oc1=O (centres unmarked) [compound 9, Methyl ((E)-5-(3-((2E,4E)-2,5-dimethylundeca-2,4-dienoyl)-4-hydroxy-2-oxo-2H-pyran-6-yl)hex-1-en-1-yl)carbamate] | inhibit | ≤ 50 nM | more potently than Myx B and 7-desmethyl-Myx B | 
2 | CCCCCCC/C=C/C=C(\C)C(=O)c1c(O)cc(C(C)CC/C=C/NC(=O)OC)oc1=O (centres unmarked) [compound 3, Methyl ((E)-5-(4-hydroxy-3-((2E,4E)-2-methyldodeca-2,4-dienoyl)-2-oxo-2H-pyran-6-yl)hex-1-en-1-yl)carbamate] | inhibit | ≤ 50 nM | more potently than Myx B and 7-desmethyl-Myx B | 
3 | CCCCCC/C=C/C=C(\C)C(=O)c1c(O)cc(C(C)CC/C=C/NC(=O)OC)oc1=O (centres unmarked) [compound 2, Methyl ((E)-5-(4-hydroxy-3-((2E,4E)-2-methylundeca-2,4-dienoyl)-2-oxo-2H-pyran-6-yl)hex-1-en-1-yl)carbamate] | inhibit | ≤ 50 nM | more potently than Myx B and 7-desmethyl-Myx B | 
4 | CCCCCC/C(C)=C/C=C(\C)C(=O)c1c(O)cc(CCC/C=C/NC(=O)OC)oc1=O [compound 6, Methyl ((E)-5-(3-((2E,4E)-2,5-dimethylundeca-2,4-dienoyl)-4-hydroxy-2-oxo-2H-pyran-6-yl)pent-1-en-1-yl)carbamate] | inhibit | ≤ 50 nM | more potently than Myx B and 7-desmethyl-Myx B | 
5 | CCCCC/C(C)=C/C=C(\C)C(=O)c1c(O)cc(CCC/C=C/NC(=O)OC)oc1=O [compound 5, Methyl ((E)-5-(3-((2E,4E)-2,5-dimethyldeca-2,4-dienoyl)-4-hydroxy-2-oxo-2H-pyran-6-yl)pent-1-en-1-yl)carbamate] | inhibit | ≤ 50 nM | more potently than Myx B and 7-desmethyl-Myx B | at least 2 mg/ml
6 | CCCCCCCC/C=C/C=C(\C)C(=O)c1c(O)cc([C@H](C)CC/C=C/NC(=O)OC)oc1=O (racemic) [compound 4, methyl ((E)-5-(4-hydroxy-3-((2E,4E)-2-methyltrideca-2,4-dienoyl)-2-oxo-2H-pyran-6-yl)hex-1-enyl)carbamate] | inhibit | ≤ 50 nM | more potently than Myx B and 7-desmethyl-Myx B | 
7 | CCCCC/C(C)=C/C=C(\C)C(=O)c1c(O)cc(C(C)CC/C=C/NC(=O)OC)oc1=O (centres unmarked) [compound 8, Methyl ((E)-5-(3-((2E,4E)-2,5-dimethyldeca-2,4-dienoyl)-4-hydroxy-2-oxo-2H-pyran-6-yl)hex-1-en-1-yl)carbamate] |  | ≤ 50 nM | more potently than Myx B and 7-desmethyl-Myx B | at least 2 mg/ml
8 | CCCC/C(C)=C/C=C(\C)C(=O)c1c(O)cc(C(C)CC/C=C/NC(=O)OC)oc1=O (centres unmarked) [Myx B, Methyl ((E)-5-(3-((2E,4E)-2,5-dimethylnona-2,4-dienoyl)-4-hydroxy-2-oxo-2H-pyran-6-yl)hex-1-en-1-yl)carbamate, reference compound] |  |  |  | at least 2 mg/ml
9 | CCCCC/C(C)=C\C=C(/C)C(=O)c1c(O)cc(CCC/C=C/NC(=O)OC)oc1=O [compound 10, Methyl ((E)-5-(3-((2E,4Z)-2,5-dimethyldeca-2,4-dienoyl)-4-hydroxy-2-oxo-2H-pyran-6-yl)pent-1-en-1-yl)carbamate] |  | ≤ 50 nM |  | 
10 | CCCCC/C=C/C=C(\C)C(=O)c1c(O)cc(C(C)CC/C=C/NC(=O)OC)oc1=O (centres unmarked) [compound 1, Methyl ((E)-5-(4-hydroxy-3-((2E,4E)-2-methyldeca-2,4-dienoyl)-2-oxo-2H-pyran-6-yl)hex-1-en-1-yl)carbamate] |  | ≤ 50 nM | more potently than Myx B and 7-desmethyl-Myx B | 
